Reference: PubChem BioAssay AID493014 (National Center for Advancing Translational Sciences (NCATS), 2011)
Out of some 340,000 compounds screened, about 170 (0.05%) were called active. This list was built around the results that the source calls inconclusive (neither active nor inactive); the mix of calls is not that of the screen. The call rests on the fitted dose curve; in most records, active means well fitted inhibition curve with a large enough effect in the signal ratio, with a control signal flat (not every such curve was filed as active); inconclusive means small, poorly fitted or top-dose-only effect, or effect the other way, or a change in a side signal; inactive means flat fitted curve, though single readings scatter; the % refers to the signal ratio. Where the call is inconclusive, the potency comes from a doubtful curve fit.

experiment: qHTS Assay to Find Inhibitors of Chronic Active B-Cell Receptor Signaling; details: ABC-DLBCL IkBa-CBG/CBR reporter, luminescence ratio (green luciferase fused to IkBa over red control in TMD8 lymphoma cells), 4 h; activity change, negative = inhibition: at 46.1 µM (top of the series);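 on activity change, negative = inhibition: plate controls were basal doxycycline-induced cells for no effect and cells given 10 µM MG132 for full effect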
In short: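 Compounds up to 46 uM were incubated four hours with TMD8 cells whose green CBG68 luciferase is fused to IkappaBalpha; red CBR luminescence normalised the signal, and concentration-effect curves were fitted to fusion, red and ratio data.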
Potency means the concentration at half of the fitted maximal effect.

Row | Compound | activity change, negative = inhibition | Potency
1 | CCCOCC1CC2(SC(=Nc3ccc(C)cc3)NC2=O)C(=O)O1 (configuration not stated) | inconclusive: -4.58% | –
2 | CCOC(=O)c1cc(-c2ccc(OC)cc2)n(CCC(=O)NCCc2ccc(OCC)c(OCC)c2)c1C | inconclusive: 2.77% | –
3 | CCOC(=O)CCCCCN1C(=O)c2cccc3cccc(c23)C1=O | – | inconclusive: 11.2 µM [falling, partial curve]
4 | COc1ccccc1CNC(=O)CCCc1nnc2n(C)c(=O)c3sccc3n12 | inactive | –
5 | Cc1nc2c(cc(Oc3ccc(S(=O)(=O)N4CCOCC4)cn3)c3ccsc32)s1 | – | inconclusive: 6.31 µM [falling, partial curve, poor fit]
6 | COc1cc(C(=O)Nc2ccc(N3CCOCC3)cc2)ccc1OCc1c(C)noc1C | inactive | –
7 | O=C(N/N=C/C(Br)=C\c1ccccc1)c1ccco1 | – | inconclusive: 25.1 µM [cytotoxic, single point]
8 | Cc1ccc(-c2nnc(N(C)C(=O)c3ccccn3)s2)cn1 | inconclusive: -0.368% | –
9 | CCn1c(N2CCN(Cc3ccc([N+](=O)[O-])cc3)CC2)nc2ccccc21 | inactive | –
10 | CN(Cc1ccc(Cl)cc1)C(=O)CCl | inconclusive: -9.81% | –
11 | Oc1ccccc1N=Cc1c(O)ccc2ccccc12 | – | inconclusive: 8.91 µM [falling, partial curve]
12 | C/C(=N/NC(=O)c1cc(-c2ccccc2)nc2c(Cl)cccc12)c1cccnc1 | inactive | –
13 | Cc1nc2c(oc3ccc(Cl)cc32)c(=O)[nH]1 | inconclusive: 13.2% | –
14 | CCC1COCCS(=O)(=O)N1Cc1cccc(Cl)c1 (configuration not stated) | inactive | –
15 | COc1cc(CNc2ccc(CNc3ncn[nH]3)cc2)cc(Cl)c1OCc1ccccc1 | inconclusive: 10.1% | –
16 | CC1(C)Cc2ccccc2C(NNC(=O)c2ccccc2)=N1 | inconclusive: -24.1% | –
17 | O=C(CNc1ccc2c(c1)OCO2)N/N=C\c1cn(Cc2ccccc2)c2ccccc12 | inactive | –
18 | Cc1ccc2c(c1)C(=O)C(=O)N2CCCOc1ccccc1C | inactive | –
19 | N#CCSc1nnc(Cc2cccc3ccccc23)n1C1CCCCC1 | inconclusive: -10.3% | –
20 | CCOC(=O)CC1=C(C(=O)OCC)C(c2ccncc2)C(C#N)=C(N)O1 (configuration not stated) | – | inconclusive: 35.5 µM [falling, single point]
21 | COc1ccccc1C(=O)NC(CCSC)C(=O)NNC(=O)C(C)Oc1ccccc1F (configuration not stated) | – | inconclusive: 18.4 µM [falling, single point]

Row | Compound | activity change, negative = inhibition | Potency
22 | COc1cc(OC)c(NC(=O)CSc2nc3ccncc3[nH]2)cc1Cl | inconclusive: -15.8% | –
23 | CNC(=S)NNC(=O)c1cn(C)nc1C | inconclusive: -9.58% | –
24 | CC(C)Oc1ccc(C(=O)NC2CCS(=O)(=O)C2)cc1 (configuration not stated) | inactive | –
25 | CCC(NC(=S)NCc1ccc(F)cc1)c1ccc(C(C)C)cc1 (configuration not stated) | inconclusive: 1.52% | –
26 | Cc1ccc(C)c2sc(NC(=O)c3nc4ccccc4s3)nc12 | – | inconclusive: 0.0231 µM [falling, full curve, poor fit]
27 | CCc1ccc(Nc2ccc(C(=O)O)cc2[N+](=O)[O-])cc1 | inconclusive: -3.43% | –
28 | Cc1nn(-c2ccccc2)c(C)c1/C=N/NC(=O)c1cc(-c2cccc3ccccc23)n[nH]1 | – | inconclusive: 7.31 µM [rising, partial curve]
29 | COc1ccccc1-c1nnc(SCC(=O)Nc2ccc(N3CCOCC3)cc2)n1N | inconclusive: 5.34% | –
30 | Cc1ccc2c(CN3CCC(C(N)=O)CC3)cc(=O)oc2c1C | inactive | –
31 | CCCCSc1cc(C)nc(N)n1 | inconclusive: 8.15% | –
32 | CC1CCN(S(=O)(=O)c2cccc(C(=O)N(C)C3(C)CCS(=O)(=O)C3)c2)CC1 (configuration not stated) | inactive | –
33 | COc1cccc(NC(=O)c2ccccc2OCc2c(C)noc2C)c1 | inconclusive: 7.99% | –
34 | c1ccc(Cn2cc(-c3cccnc3)cn2)cc1 | inconclusive: -1.2% | –
35 | O=C(Nc1ccccc1)c1ccc(NCCc2ccccc2)c([N+](=O)[O-])c1 | – | inconclusive: 3.66 µM [rising, full curve, poor fit]
36 | Cc1noc(C)c1COc1ccc(C(=O)NNC(=O)c2ccccc2O)cc1 | inactive | –
37 | O=C(N/N=C/c1ccsc1)c1ccccn1 | – | inconclusive: 20 µM [falling, partial curve]
38 | COCCN1C=C(C(=O)OC)C(c2ccc3c(c2)OCO3)C(C(=O)OC)=C1 | inactive | –
39 | COc1cc2sc3ccc(-c4ccc(CN5CCOCC5)cc4)cc3c(=O)c2cc1OC | inconclusive: -9.77% | –
40 | O=C(CC1Nc2ccccc2NC1=O)c1ccccc1 (configuration not stated) | – | inconclusive: 3.16 µM [falling, full curve]
41 | O=C(NCc1n[nH]c(=O)c2ccccc12)C1CC(=O)N(c2ccc(Cl)cc2)C1 (configuration not stated) | – | inconclusive: 29.1 µM [falling, single point]
42 | COc1cc(C(=O)NCc2nnc(SCC(=O)Nc3nc4ccccc4s3)o2)cc(OC)c1OC | – | inconclusive: 29.1 µM [falling, single point]

Row | Compound | activity change, negative = inhibition | Potency
43 | CC(=O)c1ccc(Nc2ccc(-c3ccccc3F)nn2)cc1 | inconclusive: -28.5% | –
44 | CC[C@]12c3[nH]c4ccc(OC)cc4c3CCN1C(=O)C(CC(=O)NCC13CC4CC(CC(C4)C1)C3)C[C@@H]2C(=O)N1CCN(C(=O)c2ccco2)CC1 (some centres not stated) | inconclusive: -16.9% | –
45 | CCOC(=O)c1c(C)n(C)c2cc(-c3cccc(C(F)(F)F)c3)c(O)cc12 | inconclusive: 7.2% | –
46 | CC(=O)Nc1cc(-c2nc3ccccc3o2)ccc1Cl | inconclusive: 4.88% | –
47 | O=C1C2C3C=CC(CO)(O3)C2C(=O)N1c1ccccc1-c1ccccc1 (configuration not stated) | inconclusive: 16.1% | –
48 | Cc1[nH]c2ccccc2c1C(=O)C(C)OC(=O)c1ccc([N+](=O)[O-])o1 (configuration not stated) | inconclusive: -18.7% | –
49 | CCc1ccccc1NC(=O)c1ccc(-c2csc(C)n2)cc1 | inconclusive: -20% | –
50 | COC(=O)c1cccc(NC(=O)c2onc3c2CCCC3)c1 | – | inconclusive: 18.4 µM [falling, single point]
51 | COc1cc(-c2nc(C)c(C(C)=O)n2O)ccc1OCC(=O)Nc1ccc(F)cc1 | inconclusive: 19.2% | –
52 | Cc1onc(-c2ccccc2Cl)c1C(=O)Nc1cccc(S(=O)(=O)N2CCOCC2)c1 | inconclusive: -10.3% | –
53 | Cc1ccc(CN2CCN(C/C=C/c3ccc(F)cc3)CC2CCO)o1 (configuration not stated) | inconclusive: 11.6% | –
54 | O=C(COC(=O)c1ccc(O)cc1O)Nc1ccc(Cl)cn1 | inconclusive: -1.17% | –
55 | Cc1ccc(S(=O)(=O)c2cn(C)c3cc(N4CCN(C)CC4)c(F)cc3c2=O)c(C)c1 | inactive | –
56 | Cc1cccc(C)c1NC(=S)NCCc1ccc(O)c(O)c1 | – | inconclusive: 15.8 µM [falling, single point]
57 | COc1ccc(N2CCN(C(=O)CNC(=O)c3cccc(Br)c3)CC2)cc1 | inactive | –
58 | O=c1[nH]c(C2CCN(S(=O)(=O)c3ccc4c(c3)OCCO4)CC2)nc2c1nnn2Cc1cccc(F)c1 | inconclusive: -11.6% | –
59 | COc1ccc(-n2c(C)cc(/C=C3\SC(=O)NC3=O)c2C)cc1 | inconclusive: 1.22% | –
60 | CCOC(=O)N1CCC(Nc2nc3ccccc3nc2NS(=O)(=O)c2ccc(Cl)cc2)CC1 | – | inconclusive: 5.8 µM [falling, partial curve]
61 | CCOC(=O)c1[nH]c2ccc(OC)cc2c1NC(=O)CCN1CCC(C)CC1 | inconclusive: 11.5% | –
62 | O=C(Nc1ncc(Cc2ccc(SC(F)F)cc2)s1)c1ccccc1 | – | inconclusive: 2.51 µM [falling, full curve]
63 | Cc1ccc(-n2c(C)c3c(C)nnc(C)c3c2C)cc1N | inactive | –

Another view of some results above.
Row,Compound,"activity change, negative = inhibition",Potency
11,Oc1ccccc1N=Cc1c(O)ccc2ccccc12,–,"inconclusive: 8.91 µM [falling, partial curve]"
12,C/C(=N/NC(=O)c1cc(-c2ccccc2)nc2c(Cl)cccc12)c1cccnc1,inactive,–
13,Cc1nc2c(oc3ccc(Cl)cc32)c(=O)[nH]1,inconclusive: 13.2%,–
14,CCC1COCCS(=O)(=O)N1Cc1cccc(Cl)c1 (configuration not stated),inactive,–

(next part)

Row | Compound | activity change, negative = inhibition | Potency
64 | Cc1ccccc1N1C(=O)c2cccc3cccc(c23)C1=O | inconclusive: -9.96% | –
65 | CSc1nccc(N/N=C/c2ccccc2)n1 | – | inconclusive: 11.2 µM [falling, partial curve]
66 | Fc1ccc2nc(Nc3nc4c(F)cccc4s3)sc2c1 | inconclusive: -22.5% | –
67 | COc1ccc(C2CC(c3ccccc3)=NN2C(=O)COC(=O)c2nc3nc(C)cc(C)n3n2)cc1 (configuration not stated) | inactive | –
68 | COc1ccc(Cl)cc1NC(=O)CN(C)C1CCCCC1 | inactive | –
69 | CSc1cccc(NC(=O)C(=O)NCc2ccccc2)c1 | – | inconclusive: 3.16 µM [falling, partial curve, poor fit]
70 | CCCCCc1n[nH]c2c1CCCC2 | inconclusive: 11.5% | –
71 | CCOC(=O)C1CCN(S(=O)(=O)c2ccc(CNC(=O)c3ccccc3)s2)CC1 | – | inconclusive: 35.5 µM [falling, single point]
72 | Cc1ccc(S(=O)(=O)Nc2ccc3c(c2)nc(CCN2CCCC2)n3C)cc1 | – | inconclusive: 35.5 µM [falling, single point]
73 | N#Cc1cc2c(nc1SCc1ccncc1)CCC2 | – | inconclusive: 23.1 µM [falling, single point]
74 | CC(=O)N[C@@H](CS)C(=O)O | inconclusive: 7.81% | –
75 | COC(=O)/C(C#N)=C/N(C)C | inconclusive: -4.02% | –
76 | O=C1NC(=S)N(C(=O)c2ccc(F)cc2)/C1=C/c1ccccc1 | inactive | –
77 | CCN(CC)c1cccc(OC2=NS(=O)(=O)c3ccccc32)c1 | – | inconclusive: 5.62 µM [falling, single point]
78 | Cc1ccnc(NC(=O)/C=C/c2ccccc2[N+](=O)[O-])c1 | inconclusive: -16% | –
79 | CCS(=O)(=O)NCCCc1ccccc1 | inactive | –
80 | O=C(c1ccc2nc[nH]c2c1)N1CCN(c2cccc(Cl)c2)CC1 | inconclusive: -22.2% | –
81 | O=C(c1ccncc1)N1CCN(S(=O)(=O)c2ccc(F)cc2)CC1 | inactive | –
82 | O=C(O)C1C2CCC(O2)C1C(=O)Nc1ccc(Cl)cc1F (configuration not stated) | inconclusive: 1.42% | –
